Test results published in article PMC6331613.
No constants are given. Whether binding was seen depends on the method and setting.

Target: T1, SUPPRESSOR OF MAX2 1-LIKE 7 (Arabidopsis) (UniProt O80875)
T1 sequence: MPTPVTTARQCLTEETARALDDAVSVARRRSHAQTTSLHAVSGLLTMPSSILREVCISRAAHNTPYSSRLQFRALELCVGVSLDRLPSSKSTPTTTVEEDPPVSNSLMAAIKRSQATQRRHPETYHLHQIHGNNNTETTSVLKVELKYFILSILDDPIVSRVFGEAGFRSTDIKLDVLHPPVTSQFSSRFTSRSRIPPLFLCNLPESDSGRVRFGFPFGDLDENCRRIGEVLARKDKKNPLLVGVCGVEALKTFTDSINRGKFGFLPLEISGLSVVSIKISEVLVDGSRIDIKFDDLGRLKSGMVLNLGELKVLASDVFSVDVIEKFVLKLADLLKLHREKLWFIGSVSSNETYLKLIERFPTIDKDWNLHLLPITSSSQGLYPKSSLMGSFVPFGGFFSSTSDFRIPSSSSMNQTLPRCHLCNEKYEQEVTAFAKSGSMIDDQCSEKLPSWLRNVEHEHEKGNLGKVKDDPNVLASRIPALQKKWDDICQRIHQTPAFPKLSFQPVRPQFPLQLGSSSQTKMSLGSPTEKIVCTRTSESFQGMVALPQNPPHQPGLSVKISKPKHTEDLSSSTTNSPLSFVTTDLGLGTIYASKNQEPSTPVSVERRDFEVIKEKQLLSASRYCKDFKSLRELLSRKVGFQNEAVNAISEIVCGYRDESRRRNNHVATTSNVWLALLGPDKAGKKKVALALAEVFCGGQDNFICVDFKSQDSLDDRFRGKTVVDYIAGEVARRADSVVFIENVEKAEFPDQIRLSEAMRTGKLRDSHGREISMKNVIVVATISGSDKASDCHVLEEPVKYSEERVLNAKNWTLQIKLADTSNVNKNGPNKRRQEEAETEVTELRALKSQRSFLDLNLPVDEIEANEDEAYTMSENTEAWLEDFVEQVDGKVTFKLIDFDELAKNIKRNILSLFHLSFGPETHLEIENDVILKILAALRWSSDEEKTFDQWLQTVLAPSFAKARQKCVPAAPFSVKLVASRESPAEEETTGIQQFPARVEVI
Experiment: two-hybrid; AtD14 (wild type or mutant) in pGADT7, SMXL7 in pGBKT7, yeast PJ69-4A; growth on SD-Leu/-Trp/-His without or with SLs (10 uM rac-MeCLA or 10 uM 5DS; control acetone), 5 days at 30 °C

B1: AtD14^R183H (Arabidopsis counterpart of the rice osd14-2 allele OsD14^R233H) (receptor, UniProt Q9SQR3 1-267)
chain: MSQHNILEALNVRVVGTGDRILFLAHGFGTDQSAWHLILPYFTQNYRVVLYDLVCAGSVNPDYFDFNRYTTLDPYVDDLLNIVDSLGIQNCAYVGHSVSAMIGIIASIRRPELFSKLILIGFSPRFLNDEDYHGGFEEGEIEKVFSAMEANYEAWVHGFAPLAVGADVPAAVREFSRTLFNMHPDISLFVSRTVFNSDLRGVLGLVRVPTCVIQTAKDVSVPASVAEYLRSHLGGDTTVETLKTEGHLPQLSAPAQLAQFLRRALPR
B1 was tested, and the binding was “no binding”.
